Measurements taken from article PMC8142927, “Destabilization of EpCAM dimer is associated with increased susceptibility towards cleavage by TACE” (PeerJ, 2021).
No constants are given. Whether binding was seen depends on the method and setting.

Target: EpEX TYloop^mut (K83D, P84D, L88D) (human) (UniProt P16422)
Assay: SEC-MALS; SEC with right- and low-angle laser light scattering detectors (SEC-RALLS/LALLS, OMNISEC), Superdex 200 Increase 10/300 GL, 150 μg of protein injected per run, 25 °C, 0.5 ml/min, 20 mM HEPES, pH 7.5, 100 mM NaCl; dimer to monomers; both purified

- binding: no binding (tested: 1.5 mg/ml (~50 µM))
B1: EpEX TYloop^mut (K83D, P84D, L88D) (domain or fragment, UniProt P16422 24-265)
chain: QEECVCENYKLAVNCFVNNNRQCQCTSVGAQNTVICSKLAAKCLVMKAEMQGSKLGRRADDEGADQNNDGLYDPDCDESGLFKAKQCQGTSMCWCVNTAGVRRTDKDTEITCSERVRTYWIIIELKHKAREKPYDSKSLRTALQKEITTRYQLDPKFITSILYENNVITIDLVQQSSQKTQNDVDIADVAYYFEKDVKGESLFHSKKMDLTVNGEQLDLDPGQTLIYYVDEKAPEFSMQGLKLE
